Earlier results, collected in patent US6855549B1, “Methods and compositions for increasing the infectivity of gene transfer vectors” (The University of Iowa Research Foundation, priority 1998, dated 2005).
At least one structure is not confirmed: it was looked up by name or label, or the drawing left a doubt.

Details: cited from earlier work

Structure (SMILES): O=C(O)CN(CCOCCOCCN(CC(=O)O)CC(=O)O)CC(=O)O [EGTA]
- affinity/preference for Ca^2+ over Mg^2+: > 10^5 fold
